# Results taken from PMC5259792, “A new serotonin 5-HT6 receptor antagonist with procognitive activity – Importance of a halogen bond interaction to stabilize the binding” (Scientific Reports, 2017).
# Chains of the proteins cited; added tags and fusions are not shown.
# UniProt P50406, whole entry: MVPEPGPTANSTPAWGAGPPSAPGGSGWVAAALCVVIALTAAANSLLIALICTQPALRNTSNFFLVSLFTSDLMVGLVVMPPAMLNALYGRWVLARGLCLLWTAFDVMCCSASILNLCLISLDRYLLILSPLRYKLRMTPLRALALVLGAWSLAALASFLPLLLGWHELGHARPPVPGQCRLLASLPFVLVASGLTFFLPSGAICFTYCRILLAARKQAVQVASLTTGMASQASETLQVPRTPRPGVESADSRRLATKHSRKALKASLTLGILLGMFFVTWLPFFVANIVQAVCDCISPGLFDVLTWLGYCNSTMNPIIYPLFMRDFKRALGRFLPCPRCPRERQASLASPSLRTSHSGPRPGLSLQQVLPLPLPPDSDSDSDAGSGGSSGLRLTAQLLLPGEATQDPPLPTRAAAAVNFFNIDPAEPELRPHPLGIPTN
# Key:
# human 5-HT6R WT = molecular target: T1, human 5-HT6R WT (Homo sapiens, UniProt P50406); assay: 5-HT6R AC assay (cAMP), wild type receptor; assay type: cell-based; settings: HEK-293 cells, 5-HT at 10 x EC50
# T1 construct: host or cells: HEK-293
# human 5-HT6R = human 5-HT6R (Homo sapiens, UniProt P50406); assay: 5-HT6R radioligand competitive binding assay ([3H]LSD); settings: read-out: Ki ± SEM (5-HT6R), membranes of transfected HEK-293 cells, mean of two to four experiments in triplicate
smiles,measurement,setting,value
"COc1ccc(NS(=O)(=O)c2ccc(I)cc2)cc1N1CCN(C)CC1 [SB-258585, reference compound]","pIC50, inhibition of 5-HT-induced stimulation of cAMP",human 5-HT6R WT,7.6 ± 0.1
same,Ki,human 5-HT6R,4.5 ± 0.2 nM
